In assay [1] the target is T1, Flag-SRSF11 (wild type) (human) (UniProt Q05519).
T1 sequence: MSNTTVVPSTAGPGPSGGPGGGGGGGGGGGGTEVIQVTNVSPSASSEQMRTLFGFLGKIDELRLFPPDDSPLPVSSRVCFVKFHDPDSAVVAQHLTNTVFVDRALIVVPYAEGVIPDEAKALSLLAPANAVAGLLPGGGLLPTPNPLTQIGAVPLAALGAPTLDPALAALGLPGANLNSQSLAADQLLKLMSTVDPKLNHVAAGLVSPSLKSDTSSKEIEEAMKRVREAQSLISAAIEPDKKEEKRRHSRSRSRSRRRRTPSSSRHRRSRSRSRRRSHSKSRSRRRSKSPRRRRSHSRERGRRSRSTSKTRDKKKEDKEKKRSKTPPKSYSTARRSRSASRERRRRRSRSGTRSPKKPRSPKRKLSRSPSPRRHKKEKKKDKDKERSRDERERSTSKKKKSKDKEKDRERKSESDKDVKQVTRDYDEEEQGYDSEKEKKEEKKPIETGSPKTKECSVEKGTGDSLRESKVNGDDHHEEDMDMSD
In words: co-IP; LoVo cells co-transfected with MYC-PAK5 and Flag-SRSF11; IP with anti-Flag and blot for MYC, or IP with anti-MYC and blot for Flag; IP lysis buffer, overnight at 4°C, Protein A+G agarose.

Protein sequences, listed by entry. Tags and fused reporters are not part of them.
UniProt Q9P286: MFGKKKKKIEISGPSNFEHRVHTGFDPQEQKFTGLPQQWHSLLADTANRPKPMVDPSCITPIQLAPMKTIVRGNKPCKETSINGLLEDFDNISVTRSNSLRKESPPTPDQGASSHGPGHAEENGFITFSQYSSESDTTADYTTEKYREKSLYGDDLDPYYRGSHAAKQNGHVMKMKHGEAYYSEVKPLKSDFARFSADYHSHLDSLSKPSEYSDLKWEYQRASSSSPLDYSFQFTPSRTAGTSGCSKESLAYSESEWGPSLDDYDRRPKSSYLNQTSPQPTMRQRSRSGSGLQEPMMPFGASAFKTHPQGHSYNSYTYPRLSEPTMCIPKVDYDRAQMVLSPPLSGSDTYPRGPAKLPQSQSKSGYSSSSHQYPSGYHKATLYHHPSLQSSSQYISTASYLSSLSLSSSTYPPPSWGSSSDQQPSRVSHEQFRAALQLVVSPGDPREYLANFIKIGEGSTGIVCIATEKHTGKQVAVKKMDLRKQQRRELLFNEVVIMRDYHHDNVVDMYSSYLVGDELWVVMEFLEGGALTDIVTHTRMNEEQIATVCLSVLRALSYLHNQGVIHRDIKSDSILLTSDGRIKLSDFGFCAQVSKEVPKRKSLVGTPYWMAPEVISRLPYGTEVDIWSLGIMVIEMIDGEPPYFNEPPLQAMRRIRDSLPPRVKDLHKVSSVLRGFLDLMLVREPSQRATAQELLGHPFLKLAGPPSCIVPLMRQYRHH

In assay [2] the target is T2, SRSF11, endogenous (human (endogenous in LoVo)) (UniProt Q05519).
T2 sequence: T1 sequence
In words: co-IP; endogenous proteins, LoVo cell lysate (IP lysis buffer); IP with anti-SRSF11 overnight at 4°C, Protein A+G agarose; blot for PAK5.

The target of another assay is MYC-PAK5 (UniProt Q9P286). The experiment in a line: co-IP; LoVo cells co-transfected with MYC-PAK5 and Flag-SRSF11; IP with anti-Flag and blot for MYC, or IP with anti-MYC and blot for Flag; IP lysis buffer, overnight at 4°C, Protein A+G agarose.

No constants are given. Whether binding was seen depends on the method and setting. In cells and extracts the contact can be indirect. Some binding calls cover weakened binding; strength is not graded here. For part of these data: Where a sequence is shown, tags or fusion partners need not be part of it.

Take “MYC-PAK5 (from UniProt Q9P286 1-719) (enzyme)”: in assay [1], the binding result is recorded as “binds”.
Take “p21-activated kinase 5 (PAK5), endogenous (from UniProt Q9P286 1-719) (enzyme)”: the binding result in assay [2] was “binds”.

B1: Flag-SRSF11 (wild type) (protein, UniProt Q05519-1 1-484)
chain: T1 sequence
With B1, the binding entry with MYC-PAK5 is reported as “binds”.

The record behind these values is publication PMC9670187.
